Measurements published in the supplement of paper PMC10849652.
Some of the results follow. Residues, ends and D or L forms follow the SMILES beside them. *: point of attachment. Cbz = O=C(OCc1ccccc1)*

Sequences of proteins named here, by UniProt entry; tags and fusion partners are left off. A change or cut given only in a name is not applied to a line headed by its entry.
UniProt Q8IVM0: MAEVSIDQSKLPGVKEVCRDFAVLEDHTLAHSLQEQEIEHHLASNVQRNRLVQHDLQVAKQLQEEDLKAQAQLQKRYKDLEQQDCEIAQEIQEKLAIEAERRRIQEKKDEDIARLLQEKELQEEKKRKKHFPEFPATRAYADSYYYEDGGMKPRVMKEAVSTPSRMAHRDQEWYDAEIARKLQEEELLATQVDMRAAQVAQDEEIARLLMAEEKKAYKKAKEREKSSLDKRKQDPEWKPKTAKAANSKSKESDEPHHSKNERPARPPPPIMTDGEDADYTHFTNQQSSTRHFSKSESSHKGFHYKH
UniProt Q96A33: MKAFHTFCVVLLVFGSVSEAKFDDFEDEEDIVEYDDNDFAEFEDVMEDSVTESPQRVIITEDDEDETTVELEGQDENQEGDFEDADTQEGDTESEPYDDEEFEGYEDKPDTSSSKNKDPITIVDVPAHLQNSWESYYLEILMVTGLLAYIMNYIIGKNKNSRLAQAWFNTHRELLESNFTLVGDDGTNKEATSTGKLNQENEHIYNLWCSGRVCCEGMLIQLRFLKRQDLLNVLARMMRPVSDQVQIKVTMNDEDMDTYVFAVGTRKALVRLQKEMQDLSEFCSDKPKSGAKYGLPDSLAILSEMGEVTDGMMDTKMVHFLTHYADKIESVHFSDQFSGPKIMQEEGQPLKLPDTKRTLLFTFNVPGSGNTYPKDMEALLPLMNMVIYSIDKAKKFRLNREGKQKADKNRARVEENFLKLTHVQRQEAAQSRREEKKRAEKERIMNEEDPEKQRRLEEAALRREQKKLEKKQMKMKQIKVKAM
UniProt Q9NPF0: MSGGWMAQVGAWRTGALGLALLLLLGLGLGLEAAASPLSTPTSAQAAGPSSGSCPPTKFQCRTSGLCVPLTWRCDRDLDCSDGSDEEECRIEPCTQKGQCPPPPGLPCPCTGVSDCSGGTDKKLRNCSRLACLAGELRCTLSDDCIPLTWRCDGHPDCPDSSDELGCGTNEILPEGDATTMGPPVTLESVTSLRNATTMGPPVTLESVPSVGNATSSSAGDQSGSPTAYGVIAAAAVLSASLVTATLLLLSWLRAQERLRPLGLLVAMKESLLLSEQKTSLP
UniProt Q9H6E4: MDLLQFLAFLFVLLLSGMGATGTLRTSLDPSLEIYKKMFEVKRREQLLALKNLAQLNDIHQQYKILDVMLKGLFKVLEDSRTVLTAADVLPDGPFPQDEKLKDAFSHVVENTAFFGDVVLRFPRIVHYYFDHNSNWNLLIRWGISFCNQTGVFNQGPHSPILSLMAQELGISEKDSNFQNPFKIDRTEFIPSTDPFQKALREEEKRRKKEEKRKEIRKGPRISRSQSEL
UniProt P48960: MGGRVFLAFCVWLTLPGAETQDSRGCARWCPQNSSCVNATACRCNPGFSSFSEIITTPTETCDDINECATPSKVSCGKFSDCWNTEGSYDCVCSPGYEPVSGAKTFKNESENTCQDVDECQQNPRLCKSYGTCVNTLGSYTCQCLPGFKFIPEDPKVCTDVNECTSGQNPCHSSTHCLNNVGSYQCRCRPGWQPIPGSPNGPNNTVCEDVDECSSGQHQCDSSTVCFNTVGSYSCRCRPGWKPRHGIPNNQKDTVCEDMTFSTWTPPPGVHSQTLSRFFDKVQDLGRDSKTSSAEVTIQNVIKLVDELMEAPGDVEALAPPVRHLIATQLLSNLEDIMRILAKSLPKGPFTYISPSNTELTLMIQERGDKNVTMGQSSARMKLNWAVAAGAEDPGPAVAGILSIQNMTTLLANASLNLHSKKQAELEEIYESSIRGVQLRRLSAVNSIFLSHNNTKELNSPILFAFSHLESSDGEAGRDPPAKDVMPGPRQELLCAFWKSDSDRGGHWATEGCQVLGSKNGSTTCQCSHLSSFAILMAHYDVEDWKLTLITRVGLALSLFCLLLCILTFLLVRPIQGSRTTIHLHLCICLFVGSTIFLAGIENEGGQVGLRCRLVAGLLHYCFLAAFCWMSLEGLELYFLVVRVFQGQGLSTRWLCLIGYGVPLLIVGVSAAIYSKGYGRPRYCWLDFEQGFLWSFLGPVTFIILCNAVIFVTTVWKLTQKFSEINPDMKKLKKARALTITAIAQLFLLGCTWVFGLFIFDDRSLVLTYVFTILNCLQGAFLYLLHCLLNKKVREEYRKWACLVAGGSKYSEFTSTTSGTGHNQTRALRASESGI
UniProt P49589: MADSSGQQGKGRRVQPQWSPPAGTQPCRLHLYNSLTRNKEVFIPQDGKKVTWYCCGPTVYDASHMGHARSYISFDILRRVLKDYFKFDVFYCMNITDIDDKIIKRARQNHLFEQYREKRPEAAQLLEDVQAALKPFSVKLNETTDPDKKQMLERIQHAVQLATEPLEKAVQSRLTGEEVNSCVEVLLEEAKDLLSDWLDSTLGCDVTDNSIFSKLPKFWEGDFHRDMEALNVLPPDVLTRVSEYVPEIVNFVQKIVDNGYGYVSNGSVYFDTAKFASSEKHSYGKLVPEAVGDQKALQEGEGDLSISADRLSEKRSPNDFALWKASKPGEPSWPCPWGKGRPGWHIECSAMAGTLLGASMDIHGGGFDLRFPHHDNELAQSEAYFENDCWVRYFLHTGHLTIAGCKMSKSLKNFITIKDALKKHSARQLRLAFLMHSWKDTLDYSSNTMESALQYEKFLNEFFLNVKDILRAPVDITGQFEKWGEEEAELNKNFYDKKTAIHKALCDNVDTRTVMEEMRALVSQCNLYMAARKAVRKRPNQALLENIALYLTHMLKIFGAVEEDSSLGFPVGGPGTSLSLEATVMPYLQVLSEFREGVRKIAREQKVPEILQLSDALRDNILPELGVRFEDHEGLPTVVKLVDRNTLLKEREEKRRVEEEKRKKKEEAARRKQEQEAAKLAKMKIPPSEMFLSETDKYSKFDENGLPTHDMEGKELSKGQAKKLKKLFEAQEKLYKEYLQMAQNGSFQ
UniProt Q96BQ5: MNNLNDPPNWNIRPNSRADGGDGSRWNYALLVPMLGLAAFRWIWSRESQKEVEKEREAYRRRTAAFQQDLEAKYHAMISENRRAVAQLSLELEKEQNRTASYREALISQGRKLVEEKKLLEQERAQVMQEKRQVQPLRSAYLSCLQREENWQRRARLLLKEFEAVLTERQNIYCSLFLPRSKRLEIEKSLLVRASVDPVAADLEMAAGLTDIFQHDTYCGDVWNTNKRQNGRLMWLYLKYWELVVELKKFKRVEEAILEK
UniProt Q3V6T2: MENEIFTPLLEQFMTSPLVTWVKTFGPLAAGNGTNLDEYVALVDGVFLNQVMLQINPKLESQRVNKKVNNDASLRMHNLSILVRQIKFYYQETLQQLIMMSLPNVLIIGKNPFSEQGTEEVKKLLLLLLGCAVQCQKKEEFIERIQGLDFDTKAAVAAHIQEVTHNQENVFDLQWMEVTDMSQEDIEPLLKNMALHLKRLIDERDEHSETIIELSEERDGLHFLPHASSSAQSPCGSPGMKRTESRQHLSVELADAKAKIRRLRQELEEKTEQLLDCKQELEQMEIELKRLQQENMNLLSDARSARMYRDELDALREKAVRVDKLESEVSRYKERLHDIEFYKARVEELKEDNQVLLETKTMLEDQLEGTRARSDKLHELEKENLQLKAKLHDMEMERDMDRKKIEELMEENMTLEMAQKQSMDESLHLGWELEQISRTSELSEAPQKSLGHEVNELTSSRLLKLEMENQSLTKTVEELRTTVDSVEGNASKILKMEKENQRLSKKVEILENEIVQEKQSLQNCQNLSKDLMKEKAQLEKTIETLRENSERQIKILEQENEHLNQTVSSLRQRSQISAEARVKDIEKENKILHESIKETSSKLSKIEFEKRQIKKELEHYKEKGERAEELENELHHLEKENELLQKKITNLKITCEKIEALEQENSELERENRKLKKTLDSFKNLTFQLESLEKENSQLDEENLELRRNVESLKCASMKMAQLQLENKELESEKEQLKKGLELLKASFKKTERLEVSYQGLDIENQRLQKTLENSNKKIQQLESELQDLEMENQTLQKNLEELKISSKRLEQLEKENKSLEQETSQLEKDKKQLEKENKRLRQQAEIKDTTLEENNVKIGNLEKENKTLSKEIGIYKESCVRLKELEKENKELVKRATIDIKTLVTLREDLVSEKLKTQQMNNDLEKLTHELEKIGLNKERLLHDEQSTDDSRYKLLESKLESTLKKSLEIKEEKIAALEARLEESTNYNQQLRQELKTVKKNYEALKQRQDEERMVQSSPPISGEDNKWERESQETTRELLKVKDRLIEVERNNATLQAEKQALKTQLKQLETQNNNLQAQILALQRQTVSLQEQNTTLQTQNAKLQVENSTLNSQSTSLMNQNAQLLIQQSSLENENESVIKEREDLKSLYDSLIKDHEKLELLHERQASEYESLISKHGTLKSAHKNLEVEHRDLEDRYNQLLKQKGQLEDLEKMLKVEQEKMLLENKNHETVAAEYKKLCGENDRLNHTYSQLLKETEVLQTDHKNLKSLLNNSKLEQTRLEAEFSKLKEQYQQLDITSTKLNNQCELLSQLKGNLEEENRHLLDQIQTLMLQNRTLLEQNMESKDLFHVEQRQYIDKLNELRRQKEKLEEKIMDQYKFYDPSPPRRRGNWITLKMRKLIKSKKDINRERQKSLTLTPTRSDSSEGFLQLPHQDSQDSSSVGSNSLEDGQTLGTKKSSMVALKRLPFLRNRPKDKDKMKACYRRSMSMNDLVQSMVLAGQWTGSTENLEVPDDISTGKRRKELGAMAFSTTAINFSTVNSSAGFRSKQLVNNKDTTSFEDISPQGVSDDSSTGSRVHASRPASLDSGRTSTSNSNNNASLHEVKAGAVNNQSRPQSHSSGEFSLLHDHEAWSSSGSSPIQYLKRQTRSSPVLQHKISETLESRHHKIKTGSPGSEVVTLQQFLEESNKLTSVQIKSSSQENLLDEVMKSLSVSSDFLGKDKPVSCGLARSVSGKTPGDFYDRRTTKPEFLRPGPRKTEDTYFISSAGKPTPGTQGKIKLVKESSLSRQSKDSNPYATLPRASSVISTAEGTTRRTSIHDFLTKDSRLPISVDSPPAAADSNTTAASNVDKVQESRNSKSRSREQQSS
UniProt Q16204: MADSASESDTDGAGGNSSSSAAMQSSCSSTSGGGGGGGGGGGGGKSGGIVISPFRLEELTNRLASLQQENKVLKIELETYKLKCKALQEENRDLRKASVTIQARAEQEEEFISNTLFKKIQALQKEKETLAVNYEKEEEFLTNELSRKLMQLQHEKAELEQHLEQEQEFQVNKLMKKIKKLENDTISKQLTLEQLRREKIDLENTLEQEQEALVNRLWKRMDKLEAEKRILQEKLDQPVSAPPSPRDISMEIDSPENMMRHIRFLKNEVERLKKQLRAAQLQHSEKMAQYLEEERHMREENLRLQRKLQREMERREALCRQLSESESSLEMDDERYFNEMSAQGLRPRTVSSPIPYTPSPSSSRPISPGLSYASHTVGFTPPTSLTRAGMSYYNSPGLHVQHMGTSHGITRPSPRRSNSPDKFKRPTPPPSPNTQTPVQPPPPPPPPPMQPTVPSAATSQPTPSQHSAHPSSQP
UniProt Q86WR0: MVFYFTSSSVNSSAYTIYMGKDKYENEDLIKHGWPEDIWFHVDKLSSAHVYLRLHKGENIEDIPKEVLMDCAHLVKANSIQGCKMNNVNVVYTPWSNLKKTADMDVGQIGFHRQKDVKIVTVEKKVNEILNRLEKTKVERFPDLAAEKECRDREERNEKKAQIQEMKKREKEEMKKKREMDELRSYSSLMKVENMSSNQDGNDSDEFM
UniProt O15446, whole entry, looked up: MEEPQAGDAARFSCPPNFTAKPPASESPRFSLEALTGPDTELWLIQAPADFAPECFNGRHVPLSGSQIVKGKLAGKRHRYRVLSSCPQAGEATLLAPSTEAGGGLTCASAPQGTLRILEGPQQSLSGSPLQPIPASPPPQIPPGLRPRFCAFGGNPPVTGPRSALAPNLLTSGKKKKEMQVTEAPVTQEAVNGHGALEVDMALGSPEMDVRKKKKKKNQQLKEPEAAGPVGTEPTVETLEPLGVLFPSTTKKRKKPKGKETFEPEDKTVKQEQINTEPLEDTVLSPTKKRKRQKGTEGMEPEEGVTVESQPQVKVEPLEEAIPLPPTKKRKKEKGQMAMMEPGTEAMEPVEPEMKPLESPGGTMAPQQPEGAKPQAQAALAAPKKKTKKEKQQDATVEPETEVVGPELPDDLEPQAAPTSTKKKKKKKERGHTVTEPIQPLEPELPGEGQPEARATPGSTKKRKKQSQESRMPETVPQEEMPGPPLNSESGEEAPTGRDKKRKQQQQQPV

Legend:
Assay in all cases: log2 fold change, soluble protein after heating vs DMSO (PISA); higher = thermal stabilisation; K562 cells, 10 uM, 30 min; active = over 0.2 and 3.5 SD of the protein, either way, in both replicates (recomputed)
IRAK-1-4 Inhibitor I = compound: C1COCCN1CCN2C3=CC=CC=C3N=C2NC(=O)C4=CC(=CC=C4)[N+](=O)[O-] [IRAK-1-4 Inhibitor I]
In short: (§1)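 K562 cells at 2×10^6 cells/mL were treated for 30 min with 10 μM compound, and aliquots were heated for 3 min over 48°C-58°C before pooling. Extraction used PBS with 0.5% NP-40 at 4°C, and soluble protein was the supernatant after 21,000xg for 90 min, measured by TMTpro 16plex LC-MS/MS with channel sums equalised. Thermal stability values, relative to control samples and from duplicates, are log2 fold changes.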

ibrutinib = compound: C=CC(=O)N1CCC[C@@H](n2nc(-c3ccc(Oc4ccccc4)cc3)c3c(N)ncnc32)C1 [ibrutinib]
In short: as §1

[1] = compound: CC(=O)c1cnc2ccc(-c3cc(Cl)c(O)c(Cl)c3)nc2c1N[C@H]1CC[C@H](CN(C)C)CC1
In short: as §1

ralimetinib = compound: CC(C)(C)Cn1c(N)nc2ccc(-c3[nH]c(C(C)(C)C)nc3-c3ccc(F)cc3)nc21 [ralimetinib]
In short: as §1

[2] = compound: CC(C)(O)CC(=O)NCCn1ccc2ncnc(Nc3ccc(Oc4cccc(C(F)(F)F)c4)c(Cl)c3)c21
In short: as §1

[3] = compound: CC(C)C1=C2N=C(C=C(N2N=C1)NCC3=CC=CC=C3)NCCCCCCN
In short: as §1

[4] = compound: CC(C)C[C@@H](C=O)NC(=O)[C@H](CC(C)C)NC(=O)[C@H](CC(C)C)NC(=O)OCc1ccccc1
In short: as §1

pinometostat = compound: CC(C)N(C[C@H]1O[C@@H](n2cnc3c(N)ncnc32)[C@H](O)[C@@H]1O)[C@H]1C[C@@H](CCc2nc3cc(C(C)(C)C)ccc3[nH]2)C1 [pinometostat]
In short: as §1

[5] = compound: CC1=C(C(CC(=O)N1)C2=CC=C(C=C2)C(F)(F)F)C(=O)NC3=C(C=C4C(=C3)C=NN4)F
In short: as §1

[6] = compound: CC1=C(C2=C(C=C1)C(=O)C3=CC=CC=C3N2CCCN)C
In short: as §1

[7] = compound: CC1=C(C=C(C=C1)NC(=O)C2=CC(=CC=C2)C(C)(C)C#N)NC3=CC4=C(C=C3)N=CN(C4=O)C
In short: as §1

[8] = compound: CC1=C(C=C(C=C1)NC(=O)C2=CC(=CC=C2)N(C)C)NC(=O)C3=CC=C(C=C3)O
In short: as §1

[9] = compound: CC1=CC=C(C=C1)SC2=C3C=C(SC3=CN=C2)C(=O)N
In short: as §1

[10] = compound: CC1=NC(=CC=C1)C2=C(N=C(N2)C(C)(C)C)C3=CC4=NC=CN=C4C=C3
In short: as §1

Nexturastat A = compound: CCCCN(Cc1ccc(C(=O)NO)cc1)C(=O)Nc1ccccc1 [Nexturastat A]
In short: as §1

vemurafenib = compound: CCCS(=O)(=O)Nc1ccc(F)c(C(=O)c2c[nH]c3ncc(-c4ccc(Cl)cc4)cc23)c1F [vemurafenib]
In short: as §1

[11] = compound: CCCS(=O)(=O)Nc1ccc(F)c(C(=O)c2c[nH]c3ncc(Cl)cc23)c1F
In short: as §1

[12] = compound: CCCc1cc(C)[nH]c(=O)c1CNC(=O)c1cc(-c2ccnc(N3CCN(C)CC3)c2)cc2c1cnn2C(C)C
In short: as §1

givinostat = compound: CCN(CC)Cc1ccc2cc(COC(=O)Nc3ccc(C(=O)NO)cc3)ccc2c1 [givinostat]
In short: as §1

barasertib = compound: CCN(CCCOc1ccc2c(Nc3cc(CC(=O)Nc4cccc(F)c4)[nH]n3)ncnc2c1)CCOP(=O)(O)O [barasertib]
In short: as §1

Measured: log2 fold change

CCDC50 (UniProt Q8IVM0)
inactive: IRAK-1-4 Inhibitor I 0.034 | ibrutinib 0.077 | [1] 0.003 | ralimetinib -0.096 | [2] -0.016 | [3] 0.026 | [4] 0.009 | pinometostat -0.018 | [5] -0.008 | [6] -0.007 | [7] -0.02 | [8] 0.013 | [9] -0.032 | [10] -0.029 | Nexturastat A -0.083 | vemurafenib 0.014 | [11] -0.037 | [12] -0.05 | givinostat -0.026 | barasertib 0.025

CCDC47 (UniProt Q96A33)
inactive: IRAK-1-4 Inhibitor I 0.009 | ibrutinib -0.013 | [1] -0.013 | ralimetinib -0.036 | [2] -0.146 | [3] -0.089 | [4] 0.07 | pinometostat -0.055 | [5] -0.002 | [6] 0.047 | [7] 0 | [8] 0.021 | [9] 0.045 | [10] 0.07 | Nexturastat A -0.039 | vemurafenib 0.002 | [11] 0.048 | [12] 0.008 | givinostat -0.02 | barasertib 0.012

CCPG1 isoform 5 (UniProt Q9ULG6)
inactive: IRAK-1-4 Inhibitor I 0.004 | ibrutinib -0.048 | [1] -0.018 | ralimetinib 0.056 | [2] 0.051 | [3] -0.042 | [4] 0.09 | pinometostat 0.175 | [5] 0.042 | [6] -0.125 | [7] -0.034 | [8] -0.032 | [9] -0.054 | [10] -0.063 | Nexturastat A 0.201 | vemurafenib -0.059 | [11] -0.069 | [12] -0.004 | givinostat 0.014 | barasertib -0.008

CD320 (UniProt Q9NPF0)
inactive: IRAK-1-4 Inhibitor I -0.018 | ibrutinib 0.015 | [1] -0.016 | ralimetinib -0.05 | [2] 0.019 | [3] -0.012 | [4] 0.006 | pinometostat -0.031 | [5] -0.025 | [6] -0.08 | [7] 0.037 | [8] 0.025 | [9] 0.003 | [10] 0.036 | Nexturastat A -0.161 | vemurafenib -0.031 | [11] -0.017 | [12] -0.03 | givinostat -0.045 | barasertib 0.012

CCDC134 (UniProt Q9H6E4)
inactive: IRAK-1-4 Inhibitor I 0.033 | ibrutinib -0.014 | [1] 0.016 | ralimetinib -0.023 | [2] 0.045 | [3] -0.042 | [4] 0.006 | pinometostat 0.062 | [5] 0.032 | [6] -0.061 | [7] 0.019 | [8] 0.049 | [9] 0.025 | [10] -0.021 | Nexturastat A 0.039 | vemurafenib -0.034 | [11] -0.005 | [12] 0.026 | givinostat 0.039 | barasertib -0.007

CD97 (UniProt P48960)
inactive: IRAK-1-4 Inhibitor I 0.006 | ibrutinib 0.045 | [1] -0.027 | ralimetinib -0.019 | [2] -0.022 | [3] 0.023 | [4] 0.044 | pinometostat -0.101 | [5] 0.015 | [6] 0.037 | [7] -0.028 | [8] -0.045 | [9] -0.009 | [10] 0.03 | Nexturastat A -0.038 | vemurafenib 0.021 | [11] -0.023 | [12] -0.046 | givinostat -0.131 | barasertib -0.026

CARS isoform 3 (UniProt P49589)
inactive: IRAK-1-4 Inhibitor I 0.033 | ibrutinib -0.009 | [1] 0.002 | ralimetinib -0.035 | [2] -0.024 | [3] -0.033 | [4] 0.01 | pinometostat -0.022 | [5] 0.001 | [6] -0.004 | [7] -0.001 | [8] 0.01 | [9] 0.006 | [10] 0.014 | Nexturastat A -0.036 | vemurafenib -0.016 | [11] 0.025 | [12] -0.006 | givinostat -0.017 | barasertib 0.006

Taken from the entries so far (2 entries):
CD320 (UniProt Q9NPF0)
inactive: IRAK-1-4 Inhibitor I -0.018 | ibrutinib 0.015 | [1] -0.016 | ralimetinib -0.05 | [2] 0.019 | [3] -0.012 | [4] 0.006 | pinometostat -0.031 | [5] -0.025 | [6] -0.08 | [7] 0.037 | [8] 0.025 | [9] 0.003 | [10] 0.036 | Nexturastat A -0.161 | vemurafenib -0.031 | [11] -0.017 | [12] -0.03 | givinostat -0.045 | barasertib 0.012

CCDC134 (UniProt Q9H6E4)
inactive: IRAK-1-4 Inhibitor I 0.033 | ibrutinib -0.014 | [1] 0.016 | ralimetinib -0.023 | [2] 0.045 | [3] -0.042 | [4] 0.006 | pinometostat 0.062 | [5] 0.032 | [6] -0.061 | [7] 0.019 | [8] 0.049 | [9] 0.025 | [10] -0.021 | Nexturastat A 0.039 | vemurafenib -0.034 | [11] -0.005 | [12] 0.026 | givinostat 0.039 | barasertib -0.007

(list continues)

CCDC127 (UniProt Q96BQ5)
inactive: IRAK-1-4 Inhibitor I 0.063 | ibrutinib -0.004 | [1] -0.007 | ralimetinib 0.006 | [2] -0.115 | [3] 0.049 | [4] -0.081 | pinometostat -0.096 | [5] 0.006 | [6] -0.031 | [7] 0.056 | [8] 0.176 | [9] -0.047 | [10] -0.017 | Nexturastat A -0.05 | vemurafenib 0 | [11] -0.018 | [12] -0.069 | givinostat -0.013 | barasertib 0.057

CBLB (UniProt Q13191)
inactive: IRAK-1-4 Inhibitor I 0.036 | ibrutinib 0.066 | [1] -0.102 | ralimetinib -0.107 | [2] -0.026 | [3] 0.003 | [4] 0.018 | pinometostat -0.022 | [5] -0.002 | [6] -0.032 | [7] 0.068 | [8] -0.012 | [9] -0.013 | [10] -0.005 | Nexturastat A 0.082 | vemurafenib -0.223 | [11] -0.048 | [12] -0.005 | givinostat -0.17 | barasertib -0.118

CCT7 (UniProt Q99832)
inactive: IRAK-1-4 Inhibitor I 0.004 | ibrutinib 0 | [1] 0.015 | ralimetinib 0.004 | [2] -0.009 | [3] 0.03 | [4] -0.019 | pinometostat -0.029 | [5] 0.072 | [6] 0.006 | [7] 0.025 | [8] 0.006 | [9] 0 | [10] 0.02 | Nexturastat A -0.106 | vemurafenib -0.007 | [11] -0.017 | [12] 0.024 | givinostat -0.059 | barasertib -0.007

CCDC88A (UniProt Q3V6T2)
inactive: IRAK-1-4 Inhibitor I -0.051 | ibrutinib -0.227 | [1] -0.152 | ralimetinib 0.094 | [2] -0.016 | [3] -0.201 | [4] 0.088 | pinometostat 0.076 | [5] 0.241 | [6] 0.023 | [7] -0.274 | [8] -0.13 | [9] 0.016 | [10] 0.031 | Nexturastat A -0.027 | vemurafenib 0.045 | [11] 0 | [12] -0.113 | givinostat 0.132 | barasertib 0.027

CCDC6 (UniProt Q16204)
inactive: IRAK-1-4 Inhibitor I 0.056 | ibrutinib -0.019 | [1] -0.021 | ralimetinib -0.029 | [2] 0 | [3] 0.048 | [4] 0.047 | pinometostat -0.003 | [5] -0.001 | [6] 0.015 | [7] -0.039 | [8] -0.032 | [9] 0.003 | [10] 0.005 | Nexturastat A -0.078 | vemurafenib 0.029 | [11] 0.011 | [12] -0.016 | givinostat 0.005 | barasertib -0.008

CCDC25 (UniProt Q86WR0)
inactive: IRAK-1-4 Inhibitor I 0.05 | ibrutinib -0.079 | [1] -0.026 | ralimetinib 0.026 | [2] -0.187 | [3] -0.032 | [4] 0.002 | pinometostat -0.011 | [5] -0.031 | [6] 0.081 | [7] 0.027 | [8] -0.057 | [9] 0.075 | [10] 0.019 | Nexturastat A -0.026 | vemurafenib -0.044 | [11] 0.052 | [12] -0.066 | givinostat 0.134 | barasertib 0.012

CD3EAP isoform 2 (UniProt O15446)
inactive: IRAK-1-4 Inhibitor I -0.12 | ibrutinib -0.003 | [1] -0.025 | ralimetinib 0.117 | [2] 0.084 | [3] 0.054 | [4] 0.085 | pinometostat 0.134 | [5] 0.026 | [6] 0.039 | [7] -0.015 | [8] 0.016 | [9] -0.054 | [10] -0.045 | Nexturastat A 0.186 | vemurafenib -0.044 | [11] -0.015 | [12] 0.01 | givinostat 0.01 | barasertib -0.099

CBFA2T3 (UniProt O75081)
inactive: IRAK-1-4 Inhibitor I -0.02 | ibrutinib -0.088 | [1] -0.249 | ralimetinib 0.132 | [2] 0.138 | [3] -0.074 | [4] 0.36 | pinometostat 0.011 | [5] 0.027 | [6] -0.024 | [7] -0.039 | [8] 0.046 | [9] -0.059 | [10] -0.142 | Nexturastat A -0.025 | vemurafenib -0.214 | [11] -0.125 | [12] 0.04 | givinostat -0.026 | barasertib 0.095
